PMC4683785
Results are given in words; binding and its absence hold for the method and conditions named. Binding seen in cells or lysates may run through a third protein.

Sequences of proteins named here, by UniProt entry; tags and fusion partners are left off.
UniProt Q8IYM9: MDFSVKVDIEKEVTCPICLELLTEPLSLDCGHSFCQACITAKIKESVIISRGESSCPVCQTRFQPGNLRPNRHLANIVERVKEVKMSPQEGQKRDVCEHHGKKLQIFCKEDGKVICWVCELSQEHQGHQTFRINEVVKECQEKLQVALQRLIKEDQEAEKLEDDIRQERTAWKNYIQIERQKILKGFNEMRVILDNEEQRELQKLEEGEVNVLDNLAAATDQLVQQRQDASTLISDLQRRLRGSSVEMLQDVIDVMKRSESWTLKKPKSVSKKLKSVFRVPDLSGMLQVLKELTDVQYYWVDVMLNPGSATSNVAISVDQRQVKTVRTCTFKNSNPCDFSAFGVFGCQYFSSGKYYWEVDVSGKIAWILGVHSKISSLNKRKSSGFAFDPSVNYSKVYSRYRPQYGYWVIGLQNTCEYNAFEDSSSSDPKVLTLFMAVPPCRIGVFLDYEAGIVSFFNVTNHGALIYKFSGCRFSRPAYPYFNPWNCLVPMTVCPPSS
UniProt P08047: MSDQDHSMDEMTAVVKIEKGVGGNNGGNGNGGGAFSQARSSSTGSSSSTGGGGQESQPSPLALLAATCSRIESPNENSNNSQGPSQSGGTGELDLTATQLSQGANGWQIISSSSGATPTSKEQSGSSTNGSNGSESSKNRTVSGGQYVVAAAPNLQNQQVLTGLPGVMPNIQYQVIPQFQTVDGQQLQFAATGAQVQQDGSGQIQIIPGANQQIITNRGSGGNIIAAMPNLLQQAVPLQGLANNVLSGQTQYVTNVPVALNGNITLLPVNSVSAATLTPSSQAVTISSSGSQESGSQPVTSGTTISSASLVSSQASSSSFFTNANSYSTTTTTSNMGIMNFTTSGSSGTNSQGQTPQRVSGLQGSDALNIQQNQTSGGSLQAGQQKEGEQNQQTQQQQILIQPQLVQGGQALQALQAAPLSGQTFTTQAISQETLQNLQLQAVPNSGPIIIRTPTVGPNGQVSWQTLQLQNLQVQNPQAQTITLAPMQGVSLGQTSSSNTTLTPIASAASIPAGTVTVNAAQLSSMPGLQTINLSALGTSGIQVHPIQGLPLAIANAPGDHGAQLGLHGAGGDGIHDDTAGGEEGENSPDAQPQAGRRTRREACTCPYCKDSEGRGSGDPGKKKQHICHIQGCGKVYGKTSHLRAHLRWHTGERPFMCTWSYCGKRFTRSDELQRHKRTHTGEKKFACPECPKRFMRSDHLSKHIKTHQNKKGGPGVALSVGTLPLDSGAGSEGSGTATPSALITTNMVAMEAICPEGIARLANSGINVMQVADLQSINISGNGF

Biological target: Tripartite motif 22 (TRIM22) (UniProt Q8IYM9)
Test: co-IP; 293T cells transfected with TRIM22-expressing plasmid; 24 h post-transfection 90 % of WCE immunoprecipitated 2 h at 4 °C with anti-TRIM22 (Abnova) Ab, Dynabeads protein G; western blot with anti-Sp1

transcription factor specificity protein 1 (Sp1) (from UniProt P08047 1-785)
binding: no binding
